Measured values from publication PMC7010817.
Results are given in words; binding and its absence hold for the method and conditions named. Binding seen in cells or lysates may run through a third protein. Some results given as binding are weak or reduced against the parent protein; the word gives no strength.

By UniProt entry, the sequences of proteins in these tests, tags left out. Where a name states a change or a piece, a line headed by the entry shows the natural chain unless it says otherwise.
UniProt Q5NCY0: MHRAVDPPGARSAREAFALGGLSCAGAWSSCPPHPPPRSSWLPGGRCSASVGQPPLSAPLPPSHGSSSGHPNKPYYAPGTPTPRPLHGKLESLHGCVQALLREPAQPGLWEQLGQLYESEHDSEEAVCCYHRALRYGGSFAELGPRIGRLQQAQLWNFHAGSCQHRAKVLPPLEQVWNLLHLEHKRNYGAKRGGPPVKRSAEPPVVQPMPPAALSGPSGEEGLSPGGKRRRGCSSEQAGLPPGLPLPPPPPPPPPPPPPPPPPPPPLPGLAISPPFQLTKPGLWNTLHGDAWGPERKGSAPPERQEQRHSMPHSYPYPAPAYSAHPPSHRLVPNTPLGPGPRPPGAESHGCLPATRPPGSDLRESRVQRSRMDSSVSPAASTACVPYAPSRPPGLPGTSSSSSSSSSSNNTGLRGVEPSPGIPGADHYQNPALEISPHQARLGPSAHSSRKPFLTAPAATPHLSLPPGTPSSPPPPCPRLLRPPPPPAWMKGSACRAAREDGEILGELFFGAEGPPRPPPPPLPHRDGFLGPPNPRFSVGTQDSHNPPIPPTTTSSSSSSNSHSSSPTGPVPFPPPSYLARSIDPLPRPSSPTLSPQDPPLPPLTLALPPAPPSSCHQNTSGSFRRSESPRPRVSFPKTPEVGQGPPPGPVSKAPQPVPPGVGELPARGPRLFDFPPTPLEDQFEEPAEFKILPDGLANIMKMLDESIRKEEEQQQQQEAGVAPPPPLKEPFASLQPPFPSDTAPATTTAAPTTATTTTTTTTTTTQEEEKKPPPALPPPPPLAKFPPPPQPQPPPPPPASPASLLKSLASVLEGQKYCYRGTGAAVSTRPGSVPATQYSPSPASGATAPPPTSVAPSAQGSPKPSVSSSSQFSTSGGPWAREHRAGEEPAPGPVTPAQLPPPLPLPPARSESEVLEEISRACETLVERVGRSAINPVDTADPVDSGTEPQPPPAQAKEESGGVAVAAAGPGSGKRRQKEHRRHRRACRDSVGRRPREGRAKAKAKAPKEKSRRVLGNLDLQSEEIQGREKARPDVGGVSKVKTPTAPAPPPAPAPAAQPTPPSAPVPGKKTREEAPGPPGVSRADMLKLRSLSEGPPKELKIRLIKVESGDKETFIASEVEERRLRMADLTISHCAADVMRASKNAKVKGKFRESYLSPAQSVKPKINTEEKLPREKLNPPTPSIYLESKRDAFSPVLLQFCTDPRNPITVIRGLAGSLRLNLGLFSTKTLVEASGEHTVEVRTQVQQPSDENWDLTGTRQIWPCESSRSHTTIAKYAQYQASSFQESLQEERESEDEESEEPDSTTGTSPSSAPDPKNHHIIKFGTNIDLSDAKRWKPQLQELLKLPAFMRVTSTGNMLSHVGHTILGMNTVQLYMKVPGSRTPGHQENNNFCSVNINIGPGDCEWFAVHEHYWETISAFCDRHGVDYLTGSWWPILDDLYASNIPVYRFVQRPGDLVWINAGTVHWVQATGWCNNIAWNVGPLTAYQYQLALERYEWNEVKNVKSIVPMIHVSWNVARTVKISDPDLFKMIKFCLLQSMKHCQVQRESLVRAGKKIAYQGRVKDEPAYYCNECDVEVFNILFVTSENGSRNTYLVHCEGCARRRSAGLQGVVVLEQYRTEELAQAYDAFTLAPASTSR

How the values were obtained:
[1] = molecular target: JMJD3 (co-IP with PPARα, Supplementary Figs. 7c, e, f and 8g) (UniProt Q5NCY0); assay: co-IP; nuclear fraction of FGF21-treated cells (Supplementary Fig. 8g)
[2] = molecular target: JMJD3 (co-IP with PPARα, Supplementary Figs. 7c, e, f and 8g) (UniProt Q5NCY0); assay: co-IP; treatment with WY14643, FGF21 or rapamycin (Supplementary Fig. 7c, e, f); cells and precipitating antibody not shown
[3] = molecular target: Flag-mouse JMJD3 (WT-JMJD3) (mouse) (UniProt Q5NCY0); assay: co-IP; PMH transfected with flag-JMJD3 plasmids, vehicle or FGF21 for 30 min; PPARα in flag-JMJD3 immunoprecipitates detected by IB; CoIP buffer 50 mM Tris-HCl pH 8.0, 150 mM NaCl, 2 mM EDTA, 0.5% NP-40, 5% glycerol
[4] = molecular target: flag-JMJD3 T1044E (mouse) (UniProt Q5NCY0); assay: as above

binding [1]: binds
binding [2]: binds
binding [3]: binds
binding [4]: binds
B1: PPARα (receptor, UniProt P23204 1-468)
chain: MVDTESPICPLSPLEADDLESPLSEEFLQEMGNIQEISQSIGEESSGSFGFADYQYLGSCPGSEGSVITDTLSPASSPSSVSCPVIPASTDESPGSALNIECRICGDKASGYHYGVHACEGCKGFFRRTIRLKLVYDKCDRSCKIQKKNRNKCQYCRFHKCLSVGMSHNAIRFGRMPRSEKAKLKAEILTCEHDLKDSETADLKSLGKRIHEAYLKNFNMNKVKARVILAGKTSNNPPFVIHDMETLCMAEKTLVAKMVANGVEDKEAEVRFFHCCQCMSVETVTELTEFAKAIPGFANLDLNDQVTLLKYGVYEAIFTMLSSLMNKDGMLIAYGNGFITREFLKNLRKPFCDIMEPKFDFAMKFNALELDDSDISLFVAAIICCGDRPGLLNIGYIEKLQEGIVHVLKLHLQSNHPDDTFLFPKLLQKMVDLRQLVTEHAQLVQVIKKTESDAALHPLLQEIYRDMY
